Here are results for one molecule from publication PMC11246417.

Amino acid sequences for entries named in this document (tags omitted). A change or cut given only in a name is not applied to a line headed by its entry.
UniProt P01106: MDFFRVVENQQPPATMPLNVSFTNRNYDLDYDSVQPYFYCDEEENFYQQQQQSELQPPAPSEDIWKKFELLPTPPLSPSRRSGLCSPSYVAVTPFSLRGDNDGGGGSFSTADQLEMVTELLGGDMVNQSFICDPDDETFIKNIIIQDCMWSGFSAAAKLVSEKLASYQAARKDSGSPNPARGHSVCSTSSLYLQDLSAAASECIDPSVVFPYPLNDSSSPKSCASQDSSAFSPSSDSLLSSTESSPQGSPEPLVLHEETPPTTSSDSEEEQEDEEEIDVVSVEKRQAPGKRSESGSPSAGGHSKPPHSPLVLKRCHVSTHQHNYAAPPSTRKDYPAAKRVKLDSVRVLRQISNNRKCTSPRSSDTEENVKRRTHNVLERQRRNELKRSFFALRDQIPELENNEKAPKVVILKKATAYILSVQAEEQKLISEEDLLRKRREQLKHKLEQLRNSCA

The experiment addresses c-Myc (human (in HCT116 and P53R cells)) (UniProt P01106). Kind of experiment: co-IP; Dynabeads protein G loaded with 3 μg antibody of the target protein or IgG; cell lysate supernatant incubated with beads overnight at 4 °C; washed three times with lysis buffer; bound proteins and inputs detected by immunoblotting; HCT116 and P53R cells (Fig. 6G).

Results are given in words; binding and its absence hold for the method and conditions named. Binding seen in cells or lysates may run through a third protein. Some entries that bind do so weakly or less than the wild type.

B1: Ubiquitin domain containing 1 (UBTD1) (protein, UniProt Q9HAC8 1-227)
chain: MGNCVGRQRRERPAAPGHPRKRAGRNEPLKKERLKWKSDYPMTDGQLRSKRDEFWDTAPAFEGRKEIWDALKAAAYAAEANDHELAQAILDGASITLPHGTLCECYDELGNRYQLPIYCLSPPVNLLLEHTEEESLEPPEPPPSVRREFPLKVRLSTGKDVRLSASLPDTVGQLKRQLHAQEGIEPSWQRWFFSGKLLTDRTRLQETKIQKDFVIQVIINQPPPPQD
Turning to B1, the binding entry was “binds”.
